The values that follow come from publication PMC3378601.

Sequences of proteins named here, by UniProt entry; tags and fusion partners are left off. Residues count along the entry.
UniProt P05453, residues 1-253: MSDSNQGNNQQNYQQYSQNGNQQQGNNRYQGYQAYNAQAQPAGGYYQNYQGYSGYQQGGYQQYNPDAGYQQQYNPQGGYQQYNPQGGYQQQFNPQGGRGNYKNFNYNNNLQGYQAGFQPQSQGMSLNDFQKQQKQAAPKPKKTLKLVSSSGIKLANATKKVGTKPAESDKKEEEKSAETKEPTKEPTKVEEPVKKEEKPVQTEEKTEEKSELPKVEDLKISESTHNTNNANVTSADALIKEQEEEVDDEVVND
UniProt Q12329: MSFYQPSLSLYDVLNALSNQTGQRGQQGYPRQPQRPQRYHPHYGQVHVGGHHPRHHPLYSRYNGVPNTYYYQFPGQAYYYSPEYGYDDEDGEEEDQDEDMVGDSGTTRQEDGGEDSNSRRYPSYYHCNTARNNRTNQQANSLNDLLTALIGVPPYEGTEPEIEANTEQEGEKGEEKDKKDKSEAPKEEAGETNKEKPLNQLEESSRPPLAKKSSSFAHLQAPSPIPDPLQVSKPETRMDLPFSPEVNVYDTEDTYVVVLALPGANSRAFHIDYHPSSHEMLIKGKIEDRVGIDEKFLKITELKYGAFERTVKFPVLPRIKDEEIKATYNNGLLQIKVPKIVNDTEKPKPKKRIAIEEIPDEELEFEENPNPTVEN

Results are given in words; binding and its absence hold for the method and conditions named. Some entries that bind do so weakly or less than the wild type.

In the assay the target is NM-his, C-terminally his-tagged NM of Sup35 (yeast) (UniProt P05453). Kind of assay: pull-down; soluble NM-his (5 µM) incubated 60 min at 25°C with Hsp26 or Hsp42 (10 µM); NM-his recovered with Ni-NTA agarose, washed, eluted; SDS-PAGE, Coomassie; both purified.

Take “Hsp42, yeast small heat shock protein (from UniProt Q12329 1-375)”: the binding result is reported as “binds weakly”.
